# Experimental data as given in the supplement of paper PMC12823440, “Inhibitors supercharge kinase turnover through native proteolytic circuits” (Nature, 2025).
# Amino acid sequences for entries named in this document (tags omitted). A change or cut given only in a name is not applied to a line headed by its entry.
# UniProt P48729: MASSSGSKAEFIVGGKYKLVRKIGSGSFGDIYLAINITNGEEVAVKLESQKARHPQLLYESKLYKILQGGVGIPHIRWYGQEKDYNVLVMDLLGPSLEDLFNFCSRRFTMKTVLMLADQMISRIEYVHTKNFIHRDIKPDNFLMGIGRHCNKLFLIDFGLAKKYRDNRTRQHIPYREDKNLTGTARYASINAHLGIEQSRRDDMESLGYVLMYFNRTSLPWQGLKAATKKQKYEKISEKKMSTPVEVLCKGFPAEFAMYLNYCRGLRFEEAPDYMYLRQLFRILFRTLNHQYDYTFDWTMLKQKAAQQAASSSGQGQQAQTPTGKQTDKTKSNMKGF
# UniProt Q9UBF8: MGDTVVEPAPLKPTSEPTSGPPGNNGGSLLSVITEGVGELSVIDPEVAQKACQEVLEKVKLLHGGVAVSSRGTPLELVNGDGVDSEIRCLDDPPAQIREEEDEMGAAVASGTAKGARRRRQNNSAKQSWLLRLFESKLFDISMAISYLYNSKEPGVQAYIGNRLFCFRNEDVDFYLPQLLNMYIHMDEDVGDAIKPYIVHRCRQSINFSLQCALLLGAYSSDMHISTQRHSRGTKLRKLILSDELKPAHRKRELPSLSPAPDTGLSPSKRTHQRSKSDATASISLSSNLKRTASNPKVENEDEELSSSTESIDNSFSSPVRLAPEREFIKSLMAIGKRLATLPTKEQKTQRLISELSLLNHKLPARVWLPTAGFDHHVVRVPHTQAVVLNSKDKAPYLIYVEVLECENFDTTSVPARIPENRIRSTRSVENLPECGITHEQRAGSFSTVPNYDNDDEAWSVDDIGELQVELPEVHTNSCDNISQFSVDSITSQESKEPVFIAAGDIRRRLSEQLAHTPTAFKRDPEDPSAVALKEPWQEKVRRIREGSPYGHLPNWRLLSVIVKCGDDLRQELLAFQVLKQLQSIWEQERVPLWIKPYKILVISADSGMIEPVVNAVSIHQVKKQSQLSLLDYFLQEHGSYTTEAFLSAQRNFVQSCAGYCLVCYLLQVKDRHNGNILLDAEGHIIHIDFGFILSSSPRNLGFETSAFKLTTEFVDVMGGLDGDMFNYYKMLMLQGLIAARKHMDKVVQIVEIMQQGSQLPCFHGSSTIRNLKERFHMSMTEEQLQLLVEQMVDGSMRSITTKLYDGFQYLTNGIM
# UniProt Q14289, whole entry, looked up: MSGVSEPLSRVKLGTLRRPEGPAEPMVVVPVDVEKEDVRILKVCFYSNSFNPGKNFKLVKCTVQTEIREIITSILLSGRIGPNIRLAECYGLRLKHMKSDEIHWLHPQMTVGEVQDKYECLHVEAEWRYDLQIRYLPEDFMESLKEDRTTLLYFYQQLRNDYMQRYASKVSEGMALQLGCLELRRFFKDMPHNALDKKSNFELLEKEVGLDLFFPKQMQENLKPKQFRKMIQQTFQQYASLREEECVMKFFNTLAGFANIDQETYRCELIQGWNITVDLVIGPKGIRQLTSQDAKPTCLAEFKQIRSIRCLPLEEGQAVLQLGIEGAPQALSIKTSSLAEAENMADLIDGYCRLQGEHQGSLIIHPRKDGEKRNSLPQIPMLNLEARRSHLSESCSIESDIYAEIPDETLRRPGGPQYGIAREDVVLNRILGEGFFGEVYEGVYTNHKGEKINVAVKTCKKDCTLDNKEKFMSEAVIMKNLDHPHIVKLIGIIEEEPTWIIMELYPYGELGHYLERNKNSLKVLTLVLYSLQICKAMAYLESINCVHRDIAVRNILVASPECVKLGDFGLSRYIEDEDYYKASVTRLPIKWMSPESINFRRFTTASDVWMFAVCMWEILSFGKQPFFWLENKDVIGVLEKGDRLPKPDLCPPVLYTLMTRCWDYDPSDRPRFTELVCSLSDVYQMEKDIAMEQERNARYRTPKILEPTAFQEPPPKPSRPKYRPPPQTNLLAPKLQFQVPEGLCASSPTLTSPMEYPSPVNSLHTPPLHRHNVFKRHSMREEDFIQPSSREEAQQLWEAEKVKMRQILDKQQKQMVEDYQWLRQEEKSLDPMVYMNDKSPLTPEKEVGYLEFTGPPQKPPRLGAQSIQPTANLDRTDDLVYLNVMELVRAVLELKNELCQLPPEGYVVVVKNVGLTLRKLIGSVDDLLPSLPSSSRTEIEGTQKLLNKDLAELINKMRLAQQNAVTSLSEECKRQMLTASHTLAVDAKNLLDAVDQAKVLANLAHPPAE
# UniProt Q16288, whole entry, looked up: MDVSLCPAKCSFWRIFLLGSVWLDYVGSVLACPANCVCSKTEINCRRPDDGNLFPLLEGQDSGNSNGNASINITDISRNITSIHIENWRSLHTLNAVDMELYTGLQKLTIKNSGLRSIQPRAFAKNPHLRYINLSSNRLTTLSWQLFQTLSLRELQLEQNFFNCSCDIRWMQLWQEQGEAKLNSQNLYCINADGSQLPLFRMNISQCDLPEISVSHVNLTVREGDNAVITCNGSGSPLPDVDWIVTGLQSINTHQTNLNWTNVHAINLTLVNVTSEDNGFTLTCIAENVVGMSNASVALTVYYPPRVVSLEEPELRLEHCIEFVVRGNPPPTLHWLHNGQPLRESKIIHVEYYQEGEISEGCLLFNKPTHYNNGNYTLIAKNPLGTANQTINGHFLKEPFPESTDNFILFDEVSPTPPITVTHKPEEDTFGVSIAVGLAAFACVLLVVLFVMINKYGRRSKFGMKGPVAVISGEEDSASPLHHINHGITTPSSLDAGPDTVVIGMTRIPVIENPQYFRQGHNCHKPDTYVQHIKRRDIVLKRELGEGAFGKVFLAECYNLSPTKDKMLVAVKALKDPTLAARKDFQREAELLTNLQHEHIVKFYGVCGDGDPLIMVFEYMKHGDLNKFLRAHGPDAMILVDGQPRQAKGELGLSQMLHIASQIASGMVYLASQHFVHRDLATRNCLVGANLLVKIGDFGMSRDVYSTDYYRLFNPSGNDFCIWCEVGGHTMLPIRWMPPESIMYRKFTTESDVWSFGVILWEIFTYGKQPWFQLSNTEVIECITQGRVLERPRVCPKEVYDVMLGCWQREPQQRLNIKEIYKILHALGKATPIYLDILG
# UniProt Q01974, whole entry: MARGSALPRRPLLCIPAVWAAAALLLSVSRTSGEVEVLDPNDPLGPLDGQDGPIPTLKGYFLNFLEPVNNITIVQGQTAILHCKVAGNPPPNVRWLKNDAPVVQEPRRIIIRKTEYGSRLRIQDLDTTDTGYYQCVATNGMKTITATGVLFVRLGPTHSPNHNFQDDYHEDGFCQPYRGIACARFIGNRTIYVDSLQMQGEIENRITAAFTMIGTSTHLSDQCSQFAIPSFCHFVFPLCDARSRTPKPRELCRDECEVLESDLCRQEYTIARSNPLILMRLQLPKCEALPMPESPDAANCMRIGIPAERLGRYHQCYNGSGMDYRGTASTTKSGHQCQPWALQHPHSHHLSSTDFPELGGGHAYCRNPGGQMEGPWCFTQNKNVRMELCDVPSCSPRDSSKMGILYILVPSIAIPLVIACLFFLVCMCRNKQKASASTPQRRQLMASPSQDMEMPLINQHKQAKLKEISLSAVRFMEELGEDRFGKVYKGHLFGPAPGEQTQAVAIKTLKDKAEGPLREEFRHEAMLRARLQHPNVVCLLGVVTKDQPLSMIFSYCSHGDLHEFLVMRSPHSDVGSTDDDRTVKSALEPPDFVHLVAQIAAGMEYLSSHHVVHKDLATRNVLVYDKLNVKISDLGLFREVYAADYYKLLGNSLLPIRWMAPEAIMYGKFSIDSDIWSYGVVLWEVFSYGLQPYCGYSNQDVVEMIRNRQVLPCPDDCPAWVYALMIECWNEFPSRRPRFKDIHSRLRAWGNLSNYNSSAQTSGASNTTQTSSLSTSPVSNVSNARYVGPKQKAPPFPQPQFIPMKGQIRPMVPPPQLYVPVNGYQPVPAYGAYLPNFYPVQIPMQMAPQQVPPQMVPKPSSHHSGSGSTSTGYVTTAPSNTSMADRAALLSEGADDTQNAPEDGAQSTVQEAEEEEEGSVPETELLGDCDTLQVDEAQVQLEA
# UniProt P29597: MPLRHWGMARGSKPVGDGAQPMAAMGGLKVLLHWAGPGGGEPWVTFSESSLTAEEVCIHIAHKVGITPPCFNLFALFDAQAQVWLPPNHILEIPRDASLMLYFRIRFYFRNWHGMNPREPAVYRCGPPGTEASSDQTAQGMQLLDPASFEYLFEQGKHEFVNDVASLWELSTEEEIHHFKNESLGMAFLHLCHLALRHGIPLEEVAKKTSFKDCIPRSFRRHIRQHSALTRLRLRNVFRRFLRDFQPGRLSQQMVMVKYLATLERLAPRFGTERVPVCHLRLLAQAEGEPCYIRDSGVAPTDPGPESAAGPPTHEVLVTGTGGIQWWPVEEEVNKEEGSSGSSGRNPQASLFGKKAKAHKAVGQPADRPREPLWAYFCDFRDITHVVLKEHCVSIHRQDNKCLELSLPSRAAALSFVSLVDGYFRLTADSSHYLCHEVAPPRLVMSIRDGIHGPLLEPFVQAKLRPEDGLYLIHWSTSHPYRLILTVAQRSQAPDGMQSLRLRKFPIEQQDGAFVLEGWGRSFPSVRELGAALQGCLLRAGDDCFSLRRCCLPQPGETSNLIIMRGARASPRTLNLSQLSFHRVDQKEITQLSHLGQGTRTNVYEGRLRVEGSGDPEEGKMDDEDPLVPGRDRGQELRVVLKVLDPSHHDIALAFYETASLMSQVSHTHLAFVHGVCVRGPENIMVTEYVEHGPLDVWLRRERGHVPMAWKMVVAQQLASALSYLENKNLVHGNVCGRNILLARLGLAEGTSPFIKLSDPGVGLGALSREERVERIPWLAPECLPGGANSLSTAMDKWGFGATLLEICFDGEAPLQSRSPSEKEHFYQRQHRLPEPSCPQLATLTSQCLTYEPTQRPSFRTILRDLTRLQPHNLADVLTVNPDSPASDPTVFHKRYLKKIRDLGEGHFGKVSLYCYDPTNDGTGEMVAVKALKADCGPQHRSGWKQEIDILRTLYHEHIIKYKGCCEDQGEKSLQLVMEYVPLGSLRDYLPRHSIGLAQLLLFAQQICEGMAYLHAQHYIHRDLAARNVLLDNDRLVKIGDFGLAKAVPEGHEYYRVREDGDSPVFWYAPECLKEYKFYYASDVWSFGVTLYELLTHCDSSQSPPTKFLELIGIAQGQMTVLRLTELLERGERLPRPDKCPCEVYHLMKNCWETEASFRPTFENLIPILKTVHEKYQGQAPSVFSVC
# UniProt P31152, whole entry: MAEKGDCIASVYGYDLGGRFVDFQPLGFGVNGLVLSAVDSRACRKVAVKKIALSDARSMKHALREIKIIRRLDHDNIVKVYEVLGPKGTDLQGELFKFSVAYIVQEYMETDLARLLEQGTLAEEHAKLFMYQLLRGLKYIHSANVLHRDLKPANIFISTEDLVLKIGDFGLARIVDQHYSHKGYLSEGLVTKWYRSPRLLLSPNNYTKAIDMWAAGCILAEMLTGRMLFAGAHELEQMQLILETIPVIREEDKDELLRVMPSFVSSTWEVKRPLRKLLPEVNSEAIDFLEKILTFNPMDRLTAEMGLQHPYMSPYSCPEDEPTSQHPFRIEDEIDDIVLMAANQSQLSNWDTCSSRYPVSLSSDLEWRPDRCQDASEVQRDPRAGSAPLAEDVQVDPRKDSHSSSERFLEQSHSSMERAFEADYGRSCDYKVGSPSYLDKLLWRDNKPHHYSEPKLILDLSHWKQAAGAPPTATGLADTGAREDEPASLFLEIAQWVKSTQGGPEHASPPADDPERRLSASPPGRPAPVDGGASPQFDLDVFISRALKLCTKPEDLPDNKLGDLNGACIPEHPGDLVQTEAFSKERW
# UniProt O96013: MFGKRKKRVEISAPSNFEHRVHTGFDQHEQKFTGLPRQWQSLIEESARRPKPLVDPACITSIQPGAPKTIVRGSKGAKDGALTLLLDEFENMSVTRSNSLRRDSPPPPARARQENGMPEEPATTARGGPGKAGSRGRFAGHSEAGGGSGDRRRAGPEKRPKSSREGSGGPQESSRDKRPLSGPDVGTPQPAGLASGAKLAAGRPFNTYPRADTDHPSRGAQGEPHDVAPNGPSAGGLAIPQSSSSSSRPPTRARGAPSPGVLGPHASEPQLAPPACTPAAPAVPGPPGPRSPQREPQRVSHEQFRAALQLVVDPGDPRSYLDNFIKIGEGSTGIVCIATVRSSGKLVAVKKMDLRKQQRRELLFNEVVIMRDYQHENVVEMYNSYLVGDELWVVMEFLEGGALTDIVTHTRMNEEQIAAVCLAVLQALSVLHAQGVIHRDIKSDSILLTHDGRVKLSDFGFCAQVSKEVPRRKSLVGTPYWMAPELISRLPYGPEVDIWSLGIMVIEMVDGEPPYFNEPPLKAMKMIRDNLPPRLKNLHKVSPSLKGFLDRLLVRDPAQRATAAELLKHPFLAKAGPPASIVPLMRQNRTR
# This is one part of the list. Hit calls seldom repeat between salt and free forms of one compound.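 Kinases were expressed as nanoluciferase fusions in K562 cells and luminescence was read every 4 h between 2 and 18 h as percent of control, DMSO set to 100% and a positive control to 0%. A time point counts as decreased when the signal drops significantly (2 sigma). The hit call is the authors' own, does not follow from the count of time points alone, and its rule is not shown.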
# Compound: C#Cc1cccc(Nc2ncnc3cc(OCCOC)c(OCCOC)cc23)c1 [Erlotinib]
# Experiment: number of time points (of 5) at which kinase-Nluc abundance scored as decreased, DMSO-normalised (count); higher = more persistent destabilization
# Conditions: 10 µM; K562; 2-18 h
row,Target,number of time points
1,PTK2 (UniProt Q05397),0
2,RAF1_S257L (clone: RAF1_mut) (UniProt P04049),0
3,CSNK1A1 (UniProt P48729),0
4,LIMK2 (UniProt P53671),0
5,PIK4CB (UniProt Q9UBF8),0
6,HER2 (UniProt P04626),0
7,PTK2B (UniProt Q14289),0
8,AKT1 (UniProt P31749),0
9,NTRK3 (UniProt Q16288),0
10,MAPK1 (UniProt P28482),0
11,RIPK2 (UniProt O43353),2
12,AURKB (UniProt Q96GD4),0
13,ERN1 (UniProt O75460),0
14,CSNK1D (UniProt P48730),0
15,ROR2 (UniProt Q01974),0
16,FGFR1 (UniProt P11362),0

row,Target,number of time points
1,STK38 (UniProt Q15208),0
2,CDK6 (UniProt Q00534),0
3,SYK (UniProt P43405),0
4,PDGFRB (UniProt P09619),0
5,MAP2K1 (UniProt Q02750),0
6,TYK2 (UniProt P29597),5
7,RIOK1 (UniProt Q9BRS2),0
8,SPHK1 (UniProt Q9NYA1),0
9,MAPK4 (UniProt P31152),0
10,CDK10 (UniProt Q15131),0
11,MAP2K2 (UniProt P36507),0
12,LIMK1 (UniProt P53667),1
13,PDPK1 (UniProt O15530),0
14,PAK4 (UniProt O96013),0
15,BMX (UniProt P51813),0

# Compound: C#Cc1cccc(Nc2ncnc3cc4c(cc23)OCCOCCOCCO4)c1 [Icotinib (Hydrochloride)]
# Experiment: as above
# Conditions: 10 µM; K562; 2-18 h
row,Target,number of time points
1,PTK2 (UniProt Q05397),0
2,RAF1_S257L (clone: RAF1_mut) (UniProt P04049),0
3,CSNK1A1 (UniProt P48729),0
4,LIMK2 (UniProt P53671),0
5,PIK4CB (UniProt Q9UBF8),0
6,HER2 (UniProt P04626),0
7,PTK2B (UniProt Q14289),0
8,AKT1 (UniProt P31749),0
9,NTRK3 (UniProt Q16288),0
10,MAPK1 (UniProt P28482),0
11,RIPK2 (UniProt O43353),0
12,AURKB (UniProt Q96GD4),0
13,ERN1 (UniProt O75460),0
14,CSNK1D (UniProt P48730),0
15,ROR2 (UniProt Q01974),0
16,FGFR1 (UniProt P11362),0

row,Target,number of time points
1,STK38 (UniProt Q15208),0
2,CDK6 (UniProt Q00534),0
3,SYK (UniProt P43405),0
4,PDGFRB (UniProt P09619),0
5,MAP2K1 (UniProt Q02750),0
6,TYK2 (UniProt P29597),0
7,RIOK1 (UniProt Q9BRS2),0
8,SPHK1 (UniProt Q9NYA1),0
9,MAPK4 (UniProt P31152),0
10,CDK10 (UniProt Q15131),0
11,MAP2K2 (UniProt P36507),0
12,LIMK1 (UniProt P53667),0
13,PDPK1 (UniProt O15530),0
14,PAK4 (UniProt O96013),0
15,BMX (UniProt P51813),0

# Compound: C#Cc1cccc(Nc2ncnc3cc4c(cc23)OCCOCCOCCO4)c1 [Icotinib]
# Experiment: as above
# Conditions: 10 µM; K562; 2-18 h
row,Target,number of time points
1,PTK2 (UniProt Q05397),0
2,RAF1_S257L (clone: RAF1_mut) (UniProt P04049),2
3,CSNK1A1 (UniProt P48729),0
4,LIMK2 (UniProt P53671),0
5,PIK4CB (UniProt Q9UBF8),3
6,HER2 (UniProt P04626),0
7,PTK2B (UniProt Q14289),0
8,AKT1 (UniProt P31749),0
9,NTRK3 (UniProt Q16288),0
10,MAPK1 (UniProt P28482),0
11,RIPK2 (UniProt O43353),0
12,AURKB (UniProt Q96GD4),0
13,ERN1 (UniProt O75460),0
14,CSNK1D (UniProt P48730),0
15,ROR2 (UniProt Q01974),0
16,FGFR1 (UniProt P11362),0

row,Target,number of time points
1,STK38 (UniProt Q15208),0
2,CDK6 (UniProt Q00534),0
3,SYK (UniProt P43405),0
4,PDGFRB (UniProt P09619),0
5,MAP2K1 (UniProt Q02750),0
6,TYK2 (UniProt P29597),0
7,RIOK1 (UniProt Q9BRS2),0
8,SPHK1 (UniProt Q9NYA1),0
9,MAPK4 (UniProt P31152),0
10,CDK10 (UniProt Q15131),0
11,MAP2K2 (UniProt P36507),0
12,LIMK1 (UniProt P53667),0
13,PDPK1 (UniProt O15530),1
14,PAK4 (UniProt O96013),0
15,BMX (UniProt P51813),0
